Source: US20110229560A1
Results are given in words; binding and its absence hold for the method and conditions named. Some binding calls cover weakened binding; strength is not graded here.

Protein sequences, listed by entry. Tags and fused reporters are not part of them. Lines headed by an entry give the natural chain unless they say otherwise; changes in a name come on top.
UniProt O14920: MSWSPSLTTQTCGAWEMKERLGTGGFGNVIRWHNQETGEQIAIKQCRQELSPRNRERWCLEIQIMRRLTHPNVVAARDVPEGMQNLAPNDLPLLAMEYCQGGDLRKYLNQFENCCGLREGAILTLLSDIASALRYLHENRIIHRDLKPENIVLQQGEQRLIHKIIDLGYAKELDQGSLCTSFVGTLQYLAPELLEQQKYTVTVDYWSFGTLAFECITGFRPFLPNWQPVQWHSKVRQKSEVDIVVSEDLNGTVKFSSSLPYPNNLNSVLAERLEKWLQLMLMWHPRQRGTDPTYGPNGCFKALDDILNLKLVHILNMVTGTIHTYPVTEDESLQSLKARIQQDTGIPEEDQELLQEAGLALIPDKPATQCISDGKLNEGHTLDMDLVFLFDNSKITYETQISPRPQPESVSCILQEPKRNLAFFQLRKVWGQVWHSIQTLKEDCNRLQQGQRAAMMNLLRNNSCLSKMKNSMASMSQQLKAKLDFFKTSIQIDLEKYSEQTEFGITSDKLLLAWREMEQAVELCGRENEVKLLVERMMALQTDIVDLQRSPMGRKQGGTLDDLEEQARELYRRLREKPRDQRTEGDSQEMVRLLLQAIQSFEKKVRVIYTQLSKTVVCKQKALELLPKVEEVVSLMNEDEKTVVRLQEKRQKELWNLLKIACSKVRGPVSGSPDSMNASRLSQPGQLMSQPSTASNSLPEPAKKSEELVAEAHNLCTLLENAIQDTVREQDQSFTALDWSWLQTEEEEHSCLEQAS
UniProt Q86WI3: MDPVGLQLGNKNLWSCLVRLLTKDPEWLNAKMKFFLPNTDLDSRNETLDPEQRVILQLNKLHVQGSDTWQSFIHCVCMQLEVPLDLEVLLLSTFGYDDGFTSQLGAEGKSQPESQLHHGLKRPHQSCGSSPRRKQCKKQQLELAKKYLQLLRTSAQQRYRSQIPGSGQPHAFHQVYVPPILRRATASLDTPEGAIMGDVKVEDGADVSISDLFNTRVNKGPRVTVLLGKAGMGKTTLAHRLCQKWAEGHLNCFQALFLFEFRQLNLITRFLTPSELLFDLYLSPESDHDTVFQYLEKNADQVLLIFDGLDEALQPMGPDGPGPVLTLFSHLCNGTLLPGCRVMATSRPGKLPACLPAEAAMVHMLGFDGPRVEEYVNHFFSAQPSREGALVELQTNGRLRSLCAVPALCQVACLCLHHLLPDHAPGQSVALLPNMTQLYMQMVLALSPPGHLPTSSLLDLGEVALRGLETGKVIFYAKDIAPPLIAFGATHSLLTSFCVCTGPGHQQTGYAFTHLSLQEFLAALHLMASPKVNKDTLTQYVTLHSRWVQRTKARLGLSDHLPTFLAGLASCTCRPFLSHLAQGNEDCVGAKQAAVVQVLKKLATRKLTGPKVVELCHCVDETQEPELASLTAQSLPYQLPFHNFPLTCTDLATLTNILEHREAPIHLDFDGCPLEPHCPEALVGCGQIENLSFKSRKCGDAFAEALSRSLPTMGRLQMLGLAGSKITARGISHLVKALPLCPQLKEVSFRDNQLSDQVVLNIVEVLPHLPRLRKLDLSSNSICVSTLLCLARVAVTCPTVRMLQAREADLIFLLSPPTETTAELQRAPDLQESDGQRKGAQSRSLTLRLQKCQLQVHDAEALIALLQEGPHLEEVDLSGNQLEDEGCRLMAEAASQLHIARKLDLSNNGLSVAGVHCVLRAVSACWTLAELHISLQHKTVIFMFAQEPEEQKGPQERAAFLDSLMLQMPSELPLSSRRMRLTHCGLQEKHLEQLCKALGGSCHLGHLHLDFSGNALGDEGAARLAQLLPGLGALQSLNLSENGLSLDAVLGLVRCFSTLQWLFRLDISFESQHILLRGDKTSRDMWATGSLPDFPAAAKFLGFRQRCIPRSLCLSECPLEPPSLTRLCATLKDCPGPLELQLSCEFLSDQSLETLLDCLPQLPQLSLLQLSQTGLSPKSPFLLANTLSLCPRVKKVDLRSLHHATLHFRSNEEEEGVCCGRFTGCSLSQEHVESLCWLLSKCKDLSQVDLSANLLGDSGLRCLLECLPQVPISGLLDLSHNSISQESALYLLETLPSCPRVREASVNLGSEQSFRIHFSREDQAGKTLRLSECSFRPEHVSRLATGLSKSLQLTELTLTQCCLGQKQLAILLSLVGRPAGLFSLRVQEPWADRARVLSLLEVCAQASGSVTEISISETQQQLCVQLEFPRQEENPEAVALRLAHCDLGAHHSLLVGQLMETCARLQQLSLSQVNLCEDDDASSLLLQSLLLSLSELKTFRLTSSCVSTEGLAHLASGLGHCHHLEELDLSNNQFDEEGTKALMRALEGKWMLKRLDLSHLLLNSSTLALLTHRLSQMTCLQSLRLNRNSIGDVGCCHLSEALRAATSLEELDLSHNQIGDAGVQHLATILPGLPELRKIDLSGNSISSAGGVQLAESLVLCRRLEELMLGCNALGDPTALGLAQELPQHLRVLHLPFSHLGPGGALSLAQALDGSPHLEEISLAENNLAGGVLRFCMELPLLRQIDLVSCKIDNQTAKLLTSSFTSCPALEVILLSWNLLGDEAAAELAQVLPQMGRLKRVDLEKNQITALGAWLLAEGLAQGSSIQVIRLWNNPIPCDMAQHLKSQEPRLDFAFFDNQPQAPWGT
UniProt C3VPR6: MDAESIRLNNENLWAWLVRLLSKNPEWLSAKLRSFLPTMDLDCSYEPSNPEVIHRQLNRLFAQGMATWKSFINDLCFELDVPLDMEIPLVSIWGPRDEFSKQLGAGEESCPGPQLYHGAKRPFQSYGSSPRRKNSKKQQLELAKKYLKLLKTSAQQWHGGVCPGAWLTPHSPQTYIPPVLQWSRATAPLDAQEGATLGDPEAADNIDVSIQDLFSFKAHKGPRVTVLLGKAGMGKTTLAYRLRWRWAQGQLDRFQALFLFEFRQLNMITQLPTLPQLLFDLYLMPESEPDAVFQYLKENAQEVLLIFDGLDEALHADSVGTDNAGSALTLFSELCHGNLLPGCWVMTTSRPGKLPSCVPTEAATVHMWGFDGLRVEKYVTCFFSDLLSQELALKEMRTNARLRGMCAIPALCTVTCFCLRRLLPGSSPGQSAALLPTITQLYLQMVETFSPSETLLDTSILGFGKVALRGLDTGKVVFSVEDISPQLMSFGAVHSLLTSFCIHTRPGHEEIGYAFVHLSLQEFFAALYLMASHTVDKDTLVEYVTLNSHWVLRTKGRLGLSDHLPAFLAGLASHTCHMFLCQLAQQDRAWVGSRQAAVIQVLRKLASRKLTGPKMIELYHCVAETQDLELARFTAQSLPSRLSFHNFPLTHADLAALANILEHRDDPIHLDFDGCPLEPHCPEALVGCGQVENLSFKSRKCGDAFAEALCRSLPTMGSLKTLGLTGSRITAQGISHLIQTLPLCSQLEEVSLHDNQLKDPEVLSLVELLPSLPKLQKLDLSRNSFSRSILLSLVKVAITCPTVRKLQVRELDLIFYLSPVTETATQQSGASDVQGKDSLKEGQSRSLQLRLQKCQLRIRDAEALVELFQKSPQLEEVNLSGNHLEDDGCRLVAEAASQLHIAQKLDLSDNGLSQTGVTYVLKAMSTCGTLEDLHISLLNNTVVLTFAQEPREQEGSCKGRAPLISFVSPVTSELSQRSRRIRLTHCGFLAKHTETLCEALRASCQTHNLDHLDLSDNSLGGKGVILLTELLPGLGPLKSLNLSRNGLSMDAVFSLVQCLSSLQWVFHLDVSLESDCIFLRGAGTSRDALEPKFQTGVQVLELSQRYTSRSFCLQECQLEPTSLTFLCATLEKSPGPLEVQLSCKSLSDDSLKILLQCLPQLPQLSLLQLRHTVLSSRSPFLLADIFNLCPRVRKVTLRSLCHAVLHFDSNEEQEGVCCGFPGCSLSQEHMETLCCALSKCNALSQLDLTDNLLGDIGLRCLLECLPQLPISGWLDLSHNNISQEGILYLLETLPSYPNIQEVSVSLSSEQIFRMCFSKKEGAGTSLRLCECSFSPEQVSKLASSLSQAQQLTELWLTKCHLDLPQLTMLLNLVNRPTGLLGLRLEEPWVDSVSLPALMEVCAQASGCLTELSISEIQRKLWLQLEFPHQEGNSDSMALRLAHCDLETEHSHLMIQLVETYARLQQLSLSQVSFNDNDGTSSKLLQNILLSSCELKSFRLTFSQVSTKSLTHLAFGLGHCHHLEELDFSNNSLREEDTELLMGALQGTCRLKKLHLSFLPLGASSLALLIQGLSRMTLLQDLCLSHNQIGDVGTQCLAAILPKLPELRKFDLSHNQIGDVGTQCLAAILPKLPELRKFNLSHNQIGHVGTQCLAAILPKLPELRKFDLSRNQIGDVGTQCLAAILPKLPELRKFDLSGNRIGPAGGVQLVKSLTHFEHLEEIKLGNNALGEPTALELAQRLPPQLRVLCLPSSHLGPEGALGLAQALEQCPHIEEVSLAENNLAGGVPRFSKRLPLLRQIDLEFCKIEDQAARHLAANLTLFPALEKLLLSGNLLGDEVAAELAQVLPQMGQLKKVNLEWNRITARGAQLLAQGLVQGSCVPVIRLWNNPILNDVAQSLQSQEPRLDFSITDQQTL

Columns and labels:
[1] = biological target: T1, endogenous IKKα/β (293T cells) (human) (UniProt O15111+O14920); experiment: IP of HEK293T cells expressing Flag-NLRC5 with anti-IKKα, anti-Flag, anti-NEMO or control IgG, immunoblot, FIG. 21A
[2] = biological target: T1, endogenous IKKα/β (293T cells) (human); experiment: IP of 293T lysate with anti-NLRC5, Western blot with anti-IKKα/β
[3] = biological target: T1, endogenous IKKα/β (293T cells) (human); experiment: IP of HEK293T lysate with anti-IKKα/β, Western blot with anti-NLRC5, FIG. 8
[4] = biological target: T2, endogenous IKKα/β (RAW264.7 cells) (mouse) (UniProt Q60680+O88351); experiment: IP of RAW264.7 lysate with anti-mNLRC5, Western blot with anti-IKKα/β
[5] = biological target: T3, endogenous RIG-I (RAW264.7 cells) (mouse) (UniProt Q6Q899); experiment: IP of RAW264.7 lysate with anti-mNLRC5 after VSV-eGFP infection, blot with anti-RIG-I
T3 sequence (looked up): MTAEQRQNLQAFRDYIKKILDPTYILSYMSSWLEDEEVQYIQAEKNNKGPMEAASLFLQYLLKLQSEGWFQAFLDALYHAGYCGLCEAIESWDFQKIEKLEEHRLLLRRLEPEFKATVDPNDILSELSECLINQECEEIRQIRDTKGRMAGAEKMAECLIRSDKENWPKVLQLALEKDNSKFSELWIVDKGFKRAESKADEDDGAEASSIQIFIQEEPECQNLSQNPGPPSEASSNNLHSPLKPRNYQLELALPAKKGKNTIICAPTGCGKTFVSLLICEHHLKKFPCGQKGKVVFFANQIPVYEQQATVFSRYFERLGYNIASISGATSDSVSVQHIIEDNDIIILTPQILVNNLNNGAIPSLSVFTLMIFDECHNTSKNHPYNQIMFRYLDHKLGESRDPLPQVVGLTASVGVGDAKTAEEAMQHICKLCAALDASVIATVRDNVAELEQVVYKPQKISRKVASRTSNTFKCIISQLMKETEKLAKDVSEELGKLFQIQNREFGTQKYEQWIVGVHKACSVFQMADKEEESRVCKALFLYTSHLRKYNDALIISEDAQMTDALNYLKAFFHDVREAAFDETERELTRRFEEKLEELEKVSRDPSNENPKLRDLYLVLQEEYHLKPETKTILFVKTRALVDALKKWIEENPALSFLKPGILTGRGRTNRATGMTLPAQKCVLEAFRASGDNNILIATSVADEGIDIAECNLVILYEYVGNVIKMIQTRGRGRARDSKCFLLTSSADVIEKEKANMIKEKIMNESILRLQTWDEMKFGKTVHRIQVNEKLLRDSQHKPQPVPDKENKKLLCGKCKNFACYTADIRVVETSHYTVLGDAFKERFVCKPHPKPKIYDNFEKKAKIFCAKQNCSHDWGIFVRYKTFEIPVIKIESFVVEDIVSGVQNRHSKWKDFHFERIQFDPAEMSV

[6] = biological target: T2, endogenous IKKα/β (RAW264.7 cells) (mouse); experiment: IP of RAW264.7 lysate with anti-IKKα/β, Western blot with mNLRC5 antibody, FIG. 8
[7] = biological target: T4, endogenous IKKβ (RAW264.7 cells) (mouse) (UniProt O88351); experiment: IP of RAW264.7 lysate with anti-mNLRC5 at time points after LPS, blot with anti-IKKβ, FIG. 20
T4 sequence (looked up): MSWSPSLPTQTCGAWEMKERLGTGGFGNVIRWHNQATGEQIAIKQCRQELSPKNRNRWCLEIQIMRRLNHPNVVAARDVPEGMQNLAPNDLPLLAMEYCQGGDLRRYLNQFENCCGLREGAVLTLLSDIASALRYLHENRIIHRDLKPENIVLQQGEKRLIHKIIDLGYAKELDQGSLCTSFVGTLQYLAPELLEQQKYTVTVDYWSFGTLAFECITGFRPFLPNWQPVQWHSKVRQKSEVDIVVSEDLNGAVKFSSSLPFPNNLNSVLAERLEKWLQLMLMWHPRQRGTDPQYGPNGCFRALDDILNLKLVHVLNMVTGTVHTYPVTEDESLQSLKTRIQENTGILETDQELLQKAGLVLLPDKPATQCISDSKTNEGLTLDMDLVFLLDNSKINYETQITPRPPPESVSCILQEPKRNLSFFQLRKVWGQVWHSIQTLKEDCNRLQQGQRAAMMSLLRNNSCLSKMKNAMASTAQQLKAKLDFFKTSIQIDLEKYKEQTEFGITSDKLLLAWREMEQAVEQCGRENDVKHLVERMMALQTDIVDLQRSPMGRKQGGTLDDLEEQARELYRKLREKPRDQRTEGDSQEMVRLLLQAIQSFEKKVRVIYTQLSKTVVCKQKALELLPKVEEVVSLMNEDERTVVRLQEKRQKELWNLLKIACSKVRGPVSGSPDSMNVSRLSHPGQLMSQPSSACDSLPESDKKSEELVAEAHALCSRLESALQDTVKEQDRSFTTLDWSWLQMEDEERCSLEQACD

[8] = biological target: T5, endogenous IKKα (RAW264.7 cells) (mouse) (UniProt Q60680); experiment: IP of RAW264.7 lysate with anti-mNLRC5 after LPS, immunoblot with anti-IKKα, FIG. 23
T5 sequence (looked up): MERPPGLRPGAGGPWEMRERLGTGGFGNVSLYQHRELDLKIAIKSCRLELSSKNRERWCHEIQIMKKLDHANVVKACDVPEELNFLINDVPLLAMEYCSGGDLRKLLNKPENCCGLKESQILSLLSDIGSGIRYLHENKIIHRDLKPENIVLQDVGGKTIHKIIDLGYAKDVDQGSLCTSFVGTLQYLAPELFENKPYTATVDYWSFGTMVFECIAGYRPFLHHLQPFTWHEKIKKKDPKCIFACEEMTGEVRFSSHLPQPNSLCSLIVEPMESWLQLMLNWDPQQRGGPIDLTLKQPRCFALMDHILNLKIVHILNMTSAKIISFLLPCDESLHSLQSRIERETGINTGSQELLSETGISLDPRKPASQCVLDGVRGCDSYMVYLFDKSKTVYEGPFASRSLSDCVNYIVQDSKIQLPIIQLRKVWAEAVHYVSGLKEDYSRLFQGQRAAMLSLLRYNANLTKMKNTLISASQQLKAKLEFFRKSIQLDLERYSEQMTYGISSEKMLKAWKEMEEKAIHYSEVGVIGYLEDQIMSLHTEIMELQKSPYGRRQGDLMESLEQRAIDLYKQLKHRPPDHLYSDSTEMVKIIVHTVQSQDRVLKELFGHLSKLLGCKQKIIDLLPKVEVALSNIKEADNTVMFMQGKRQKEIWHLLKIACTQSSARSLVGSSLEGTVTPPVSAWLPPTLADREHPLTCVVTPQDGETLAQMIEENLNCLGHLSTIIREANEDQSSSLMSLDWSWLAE

[9] = biological target: T3, endogenous RIG-I (RAW264.7 cells) (mouse); experiment: IP of RAW264.7 lysate with anti-mNLRC5 at time points after VSV-eGFP infection, Western blot with anti-RIG-I; no or only a faint band at 0, 2 and 4 h
[10] = biological target: T3, endogenous RIG-I (RAW264.7 cells) (mouse); experiment: IP of RAW264.7 lysate with anti-mNLRC5 after VSV-eGFP infection, Western blot with anti-RIG-I, FIG. 13D
[11] = biological target: T5, endogenous IKKα (RAW264.7 cells) (mouse); experiment: IP of RAW264.7 lysate with anti-mNLRC5 at time points after LPS, blot with anti-IKKα, FIG. 20
[12] = biological target: T4, endogenous IKKβ (RAW264.7 cells) (mouse); experiment: IP of RAW264.7 lysate with anti-mNLRC5 after LPS, immunoblot with anti-IKKβ, FIG. 23
[13] = biological target: T2, endogenous IKKα/β (RAW264.7 cells) (mouse); experiment: IP of RAW264.7 lysate with anti-IKKα/β, anti-NEMO or control IgG, Western blot with mNLRC5 antibody, FIG. 25

Measured: binding

Flag-NLRC5 (human NLRC5, full length) (from UniProt Q86WI3 1-1866)
binds: [1]

endogenous human NLRC5 (293T cells) (from UniProt Q86WI3 1-1866)
binds: [2] | [3]

endogenous mouse NLRC5 (RAW264.7 cells) (from UniProt C3VPR6 1-1915)
not listed: [1] | [2] | [3]
binds: all other assays above
